These are yes or no findings as the source states them, for the method shown. Binding seen in cells or lysates may run through a third protein.
Biological target: myotonic dystrophy kinase–related cdc42-binding kinase α (MRCKα) (human (endogenous in 16HBE14o-)) (UniProt Q5VT25)
Test: co-IP; lysate of untransfected 16HBE14o- cells immunoprecipitated with anti-MRCKα antibody (IgG as control), μMACS Protein G Kit, 4°C overnight; blot for the endogenous β isoforms; 5% of lysate as input

The chains behind the UniProt entries cited, without tags or fusion partners.
UniProt Q5VT25: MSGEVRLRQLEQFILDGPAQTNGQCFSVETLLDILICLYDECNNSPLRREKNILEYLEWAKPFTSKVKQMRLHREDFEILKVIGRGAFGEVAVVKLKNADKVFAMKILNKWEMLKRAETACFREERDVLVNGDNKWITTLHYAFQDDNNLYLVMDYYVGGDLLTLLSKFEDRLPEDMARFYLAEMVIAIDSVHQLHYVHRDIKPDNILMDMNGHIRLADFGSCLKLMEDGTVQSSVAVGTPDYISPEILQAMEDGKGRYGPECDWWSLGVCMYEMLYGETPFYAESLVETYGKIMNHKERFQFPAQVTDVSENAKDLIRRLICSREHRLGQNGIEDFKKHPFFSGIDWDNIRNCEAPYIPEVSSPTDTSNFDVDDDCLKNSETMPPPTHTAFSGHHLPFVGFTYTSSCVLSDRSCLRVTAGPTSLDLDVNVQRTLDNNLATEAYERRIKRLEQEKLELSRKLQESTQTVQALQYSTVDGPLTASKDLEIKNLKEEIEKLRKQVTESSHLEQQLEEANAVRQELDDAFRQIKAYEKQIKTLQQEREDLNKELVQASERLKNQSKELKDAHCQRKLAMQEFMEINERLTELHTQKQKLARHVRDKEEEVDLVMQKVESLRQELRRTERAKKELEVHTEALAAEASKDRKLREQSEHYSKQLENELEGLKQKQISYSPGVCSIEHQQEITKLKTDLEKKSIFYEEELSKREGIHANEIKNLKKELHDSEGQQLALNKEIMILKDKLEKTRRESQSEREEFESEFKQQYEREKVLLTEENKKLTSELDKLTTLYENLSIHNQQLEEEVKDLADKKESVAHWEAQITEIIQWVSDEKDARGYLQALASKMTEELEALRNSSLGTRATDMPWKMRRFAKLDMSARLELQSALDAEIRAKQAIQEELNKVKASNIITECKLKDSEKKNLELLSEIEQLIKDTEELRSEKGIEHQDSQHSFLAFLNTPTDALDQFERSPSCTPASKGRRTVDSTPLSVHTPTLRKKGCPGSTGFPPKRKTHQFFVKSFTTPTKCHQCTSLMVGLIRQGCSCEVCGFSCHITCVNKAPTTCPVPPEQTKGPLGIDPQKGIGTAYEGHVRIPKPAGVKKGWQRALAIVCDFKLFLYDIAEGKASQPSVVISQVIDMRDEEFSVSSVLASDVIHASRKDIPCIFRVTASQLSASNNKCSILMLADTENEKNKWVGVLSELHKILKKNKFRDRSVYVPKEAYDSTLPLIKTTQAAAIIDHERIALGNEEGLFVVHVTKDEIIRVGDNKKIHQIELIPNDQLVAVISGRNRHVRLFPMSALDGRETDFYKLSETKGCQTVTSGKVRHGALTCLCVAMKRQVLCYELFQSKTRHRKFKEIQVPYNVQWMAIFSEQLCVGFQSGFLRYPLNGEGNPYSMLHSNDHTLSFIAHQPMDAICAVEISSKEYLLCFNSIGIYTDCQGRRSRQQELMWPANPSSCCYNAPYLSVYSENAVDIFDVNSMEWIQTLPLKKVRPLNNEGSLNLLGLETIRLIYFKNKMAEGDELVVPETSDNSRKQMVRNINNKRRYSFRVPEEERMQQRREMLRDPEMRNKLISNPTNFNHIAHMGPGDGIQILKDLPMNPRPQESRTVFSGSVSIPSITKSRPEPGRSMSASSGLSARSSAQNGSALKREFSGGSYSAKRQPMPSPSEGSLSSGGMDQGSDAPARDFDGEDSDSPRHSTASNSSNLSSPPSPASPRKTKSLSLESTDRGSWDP
UniProt P14415: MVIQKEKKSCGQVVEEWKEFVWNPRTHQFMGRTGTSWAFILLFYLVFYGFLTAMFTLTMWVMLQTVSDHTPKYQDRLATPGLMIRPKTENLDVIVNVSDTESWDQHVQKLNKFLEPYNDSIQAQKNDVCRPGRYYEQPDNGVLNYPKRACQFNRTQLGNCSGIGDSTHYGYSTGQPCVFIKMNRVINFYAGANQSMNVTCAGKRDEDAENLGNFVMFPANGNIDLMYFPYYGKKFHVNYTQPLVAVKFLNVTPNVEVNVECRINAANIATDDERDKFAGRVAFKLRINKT

Substance | binding
NKA β2 subunit (from UniProt P14415 1-290) | no binding
NKA β3 subunit (from UniProt P54709 1-279) | no binding

From paper PMC7934944
